Data as given in PubChem BioAssay AID330 (DTP/NCI, 2004).
The list shows only some results of the screen, not a fair sample: it is rich in T/C values a quarter to a half above the control, in often repeated tests (any T/C) and in doses without a T/C. Further doses and runs are listed elsewhere. T/C gives the treated animals as a percentage of the vehicle group. Some doses have a count of surviving animals in place of a T/C: the source files T/C as zero there, which appears to mark a toxic dose or a test without result, not a measured value. Some survivor counts are full or nearly so, which does not show that the dose was tolerated: survival well below the control is almost never listed, so the zero probably covers shortened survival too. Counts of survivors are from the toxicity check (mostly the fifth day) where no day follows; animals may have died later. Schedule codes are those of the source, read here as Q, the interval in days (D) or hours (H), X, the number of doses. Some doses were run more than once; the results are listed from low to high. Where survival is the endpoint, this PubChem deposit counts one and a half times the control or more as active, and values a quarter to a half above the control carry no call in these data; other NCI protocols may use other cut-offs. Some T/C values are followed by the survivors on the day toxicity was checked, most often the fifth; where none is given, no animal had died by that day.

Test system: P388 leukemia ip, CD2F1 mice, survival T/C
Experiment: NCI In Vivo Anticancer Drug Screen. Data for tumor model P388 Leukemia (intraperitoneal) in CD2F1 (CDF1) mice
Settings: T/C endpoint: median survival time, higher T/C = longer survival
[1] = dose: 100.0 mg/kg/injection, schedule: Q01DX009 (ip), vehicle: distilled water + Tween-80
[2] = dose: 200.0 mg/kg/injection, schedule: Q01DX009 (ip), vehicle: distilled water + Tween-80
[3] = dose: 50.0 mg/kg/injection, schedule: Q01DX009 (ip), vehicle: saline
[4] = dose: 100.0 mg/kg/injection, schedule: Q01DX009 (ip), vehicle: saline
[5] = dose: 200.0 mg/kg/injection, schedule: Q01DX009 (ip), vehicle: saline
[6] = dose: 200.0 mg/kg/injection, schedule: Q01DX009 (ip), vehicle: saline with Tween-80
[7] = dose: 400.0 mg/kg/injection, schedule: Q01DX001 (ip), vehicle: saline with Tween-80
[8] = dose: 400.0 mg/kg/injection, schedule: Q04DX003 (ip), vehicle: saline with Tween-80
[9] = dose: 240.0 mg/kg/injection, schedule: Q01DX005 (ip), vehicle: saline
[10] = dose: 100.0 mg/kg/injection, schedule: Q01DX009 (ip), vehicle: saline with Tween-80

## CCCOC1CC(C)(O)C(C(=O)OC)c2cc3c(c(O)c21)C(=O)c1c(O)cc2c(c1C3=O)OC1OC2(C)C(O)C(N(C)C)C1O (stereo not drawn)
dose: 2.5 mg/kg/injection, schedule: Q01DX009 (ip), vehicle: other
  T/C: 133 % of control
dose: 5.0 mg/kg/injection, schedule: Q01DX009 (ip), vehicle: other
  T/C: 130 % of control
dose: 10.0 mg/kg/injection, schedule: Q01DX009 (ip), vehicle: other
  T/C: 134 % of control
dose: 20.0 mg/kg/injection, schedule: Q01DX009 (ip), vehicle: other
  survivor count: 5 of 6
dose: 40.0 mg/kg/injection, schedule: Q01DX009 (ip), vehicle: other
  survivor count: 0 of 6

## CN(C)CCNc1ccc(NCCN(C)C)c2c1C(=O)c1ccccc1C2=O
dose: 5.0 mg/kg/injection, schedule: Q01DX009 (ip), vehicle: acid diluted with saline
  T/C: 133 % of control
dose: 10.0 mg/kg/injection, schedule: Q01DX009 (ip), vehicle: acid diluted with saline
  T/C: 149 % of control
dose: 10.0 mg/kg/injection, schedule: Q01DX009 (ip), vehicle: distilled water + Tween-80
  T/C: 133 % of control
dose: 80.0 mg/kg/injection, schedule: Q01DX009 (ip), vehicle: acid diluted with saline
  survivor count: 4 of 6

## CCCCCNC(=O)OCc1c(COC(=O)NCCCCC)c(-c2ccc(Cl)c(Cl)c2)n2c1CCC2
dose: 50.0 mg/kg/injection, schedule: Q01DX009 (ip), vehicle: distilled water + Tween-80, evaluated on day 30
  T/C: 138 % of control
dose: 50.0 mg/kg/injection, schedule: Q01DX009 (ip), vehicle: distilled water + Tween-80, evaluated on day 45
  T/C: 137 % of control
[1]
  T/C: 137 % of control
[2]
  T/C: 135 % of control [4 of 6 alive]
  survivor count: 4 of 6

## CC(=O)OCC1OC(n2cc(F)c(=O)[nH]c2=O)CC1OC(C)=O (stereo not drawn)
dose: 400.0 mg/kg/injection, schedule: Q01DX009 (ip), vehicle: saline with Tween-80
  survivor count: 6 of 6

## CCCCN(CCCC)CN(CCCC)CCCC
dose: 100.0 mg/kg/injection, schedule: Q01DX005 (ip), vehicle: saline with Tween-80
  survivor count: 2 of 6
dose: 200.0 mg/kg/injection, schedule: Q01DX005 (ip), vehicle: saline with Tween-80
  survivor count: 0 of 6

## CN(C)CC[CH2][Sn]([CH3])([c]1ccccc1)[c]1ccccc1
[3]
  survivor count: 6 of 6
[4]
  survivor count: 6 of 6
[5]
  survivor count: 1 of 6

## O=NNc1ccc2cccnc2n1
dose: 12.5 mg/kg/injection, schedule: Q01DX009 (ip), vehicle: water
  T/C: 126 and 133 % of control
dose: 25.0 mg/kg/injection, schedule: Q01DX009 (ip), vehicle: water
  T/C: 141 % of control [5 of 6 alive]
dose: 100.0 mg/kg/injection, schedule: Q01DX009 (ip), vehicle: water
  survivor count: 6 of 6

## CCCCCOC(=O)c1ccc(O)cc1
[6]
  survivor count: 2 of 6

## CCn1c(=O)c2[nH]c(Cl)nc2n(CC)c1=O
dose: 200.0 mg/kg/injection, schedule: Q04DX003 (ip), vehicle: water
  survivor count: 3 of 6

## CC1(c2cc(Cl)c(Cl)cc2Cl)NC(=O)NC1=O (stereo not drawn)
[7]
  survivor count: 0 of 6

## C[N+]1(Cc2ccccc2)C2CCC1C(CCl)C(O)C2 (stereo not drawn)
dose: 25.0 mg/kg/injection, schedule: Q01DX009 (ip), vehicle: saline
  survivor count: 5 of 6
[3]
  survivor count: 0 of 6

## Cc1nc2[nH]c(=O)[nH]c(=O)c2[nH]1
[8]
  survivor count: 4 of 6

## N=C(N)n1cc(/C=N/N=C(N)N)cn1
dose: 240.0 mg/kg/injection, schedule: Q01DX005 (ip), vehicle: saline with Tween-80
  survivor count: 1 of 6

## CN(N=O)C(=O)NCC1OC(OC2(CO)OC(CNC(=O)N(C)N=O)C(O)C2O)C(O)C(O)C1O (stereo not drawn)
[4]
  T/C: 130 % of control
[5]
  T/C: 137 and 140 % of control

## NCCc1ccncc1
dose: 240.0 mg/kg/injection, schedule: Q01DX005 (ip), vehicle: suspension in saline
  survivor count: 3 of 6

## COc1cc(C=Nc2cc(Br)cc(Br)c2)ccc1N(CCCl)CCCl
dose: 1.0 mg/kg/injection, schedule: Q01DX009 (ip), vehicle: saline with Tween-80
  T/C: 130 % of control
dose: 1.25 mg/kg/injection, schedule: Q01DX009 (ip), vehicle: saline with Tween-80
  T/C: 145 % of control
dose: 4.5 mg/kg/injection, schedule: Q04DX003 (ip), vehicle: other
  T/C: 134 % of control

## CS/C(Nc1ccccc1)=C1\CCCn2c1nc1ccccc1c2=O
dose: 200.0 mg/kg/injection, schedule: Q01DX001 (ip), vehicle: saline with Tween-80
  survivor count: 5 of 6
[7]
  survivor count: 2 of 6

## CCCCOc1ccc2nc(C)cc(N=[N+]=[N-])c2c1
dose: 120.0 mg/kg/injection, schedule: Q01DX005 (ip), vehicle: saline with Tween-80
  survivor count: 6 of 6

## O=C(Nc1ccc(C(=O)O)cc1)Nc1nccs1
dose: 25.0 mg/kg/injection, schedule: Q01DX009 (ip), vehicle: distilled water + Tween-80
  T/C: 125 % of control
dose: 50.0 mg/kg/injection, schedule: Q01DX009 (ip), vehicle: distilled water + Tween-80
  T/C: 143 % of control
[1]
  T/C: 131 % of control
[2]
  T/C: 126 % of control
dose: 400.0 mg/kg/injection, schedule: Q01DX009 (ip), vehicle: distilled water + Tween-80
  survivor count: 2 of 6 and 3 of 6

## CN=C(N)N/N=C/c1c2ccccc2c(Cl)c2ccccc12
dose: 50.0 mg/kg/injection, schedule: Q04DX002 (ip), vehicle: saline with Tween-80
  survivor count: 1 of 6
dose: 100.0 mg/kg/injection, schedule: Q04DX002 (ip), vehicle: saline with Tween-80
  survivor count: 1 of 6

## CCCCCNc1ncnc2c(C)[nH]nc12
dose: 400.0 mg/kg/injection, schedule: Q01DX005 (ip), vehicle: Klucel (hydroxypropylcellulose) (HPC)
  survivor count: 0 of 6

## C#CC1OCCCO1
[9]
  survivor count: 0 of 6

## O=C1C=C(O)C2CCCCC2N1 (stereo not drawn)
dose: 200.0 mg/kg/injection, schedule: Q01DX005 (ip), vehicle: Klucel (hydroxypropylcellulose) (HPC)
  survivor count: 0 of 6

## CC(C#N)(Nc1ccccc1)c1ccco1 (stereo not drawn)
dose: 25.0 mg/kg/injection, schedule: Q04DX003 (ip), vehicle: other
  survivor count: 6 of 6
dose: 50.0 mg/kg/injection, schedule: Q04DX003 (ip), vehicle: other
  survivor count: 6 of 6
dose: 100.0 mg/kg/injection, schedule: Q04DX003 (ip), vehicle: other
  survivor count: 4 of 6 and 5 of 6
dose: 200.0 mg/kg/injection, schedule: Q04DX003 (ip), vehicle: other
  survivor count: 1 of 6

## Cc1ccc2snnc2c1
dose: 12.5 mg/kg/injection, schedule: Q01DX009 (ip), vehicle: Klucel (hydroxypropylcellulose) (HPC)
  survivor count: 6 of 6
dose: 25.0 mg/kg/injection, schedule: Q01DX009 (ip), vehicle: Klucel (hydroxypropylcellulose) (HPC)
  survivor count: 6 of 6
dose: 100.0 mg/kg/injection, schedule: Q01DX001 (ip), vehicle: Klucel (hydroxypropylcellulose) (HPC)
  survivor count: 0 of 6
dose: 200.0 mg/kg/injection, schedule: Q01DX001 (ip), vehicle: Klucel (hydroxypropylcellulose) (HPC)
  survivor count: 0 of 6
dose: 400.0 mg/kg/injection, schedule: Q01DX001 (ip), vehicle: Klucel (hydroxypropylcellulose) (HPC)
  survivor count: 0 of 6

## Cc1oc2ccccc2c(=O)c1CN1CCN(C)CC1
[9]
  survivor count: 0 of 6

## CCNC(=O)OCc1ccco1
[3]
  survivor count: 0 of 6
[10]
  survivor count: 0 of 6
[6]
  survivor count: 0 of 6

## CCOC(=O)c1cc(-c2ccccn2)c(=O)n2ccccc12
[10]
  survivor count: 6 of 6
[6]
  survivor count: 6 of 6

## C/C(=N\NC(N)=S)c1cccc(/C(C)=N/NC(N)=S)n1
dose: 100.0 mg/kg/injection, schedule: Q04DX003 (ip), vehicle: saline with Tween-80
  survivor count: 3 of 6
dose: 200.0 mg/kg/injection, schedule: Q04DX003 (ip), vehicle: saline with Tween-80
  survivor count: 2 of 6
[8]
  survivor count: 5 of 6

## CN(C)CCC1(C)OCCC2=C1Cc1ccccc12 (stereo not drawn)
[6]
  survivor count: 1 of 6
